Laboratory results published in the supplement of paper PMC12067093, “Discovery and optimisation of a covalent ligand for TRIM25 and its application to targeted protein ubiquitination” (Chemical Science, 2025).
This is one part of the list.

By UniProt entry, the sequences of proteins in these tests, tags left out. Where a name states a change or a piece, a line headed by the entry shows the natural chain unless it says otherwise.
UniProt O75607: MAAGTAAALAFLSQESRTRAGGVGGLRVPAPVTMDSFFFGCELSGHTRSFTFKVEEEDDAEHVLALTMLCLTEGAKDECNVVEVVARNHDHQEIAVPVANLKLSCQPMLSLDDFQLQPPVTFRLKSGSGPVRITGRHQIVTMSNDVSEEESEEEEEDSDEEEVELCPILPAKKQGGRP
UniProt O96028: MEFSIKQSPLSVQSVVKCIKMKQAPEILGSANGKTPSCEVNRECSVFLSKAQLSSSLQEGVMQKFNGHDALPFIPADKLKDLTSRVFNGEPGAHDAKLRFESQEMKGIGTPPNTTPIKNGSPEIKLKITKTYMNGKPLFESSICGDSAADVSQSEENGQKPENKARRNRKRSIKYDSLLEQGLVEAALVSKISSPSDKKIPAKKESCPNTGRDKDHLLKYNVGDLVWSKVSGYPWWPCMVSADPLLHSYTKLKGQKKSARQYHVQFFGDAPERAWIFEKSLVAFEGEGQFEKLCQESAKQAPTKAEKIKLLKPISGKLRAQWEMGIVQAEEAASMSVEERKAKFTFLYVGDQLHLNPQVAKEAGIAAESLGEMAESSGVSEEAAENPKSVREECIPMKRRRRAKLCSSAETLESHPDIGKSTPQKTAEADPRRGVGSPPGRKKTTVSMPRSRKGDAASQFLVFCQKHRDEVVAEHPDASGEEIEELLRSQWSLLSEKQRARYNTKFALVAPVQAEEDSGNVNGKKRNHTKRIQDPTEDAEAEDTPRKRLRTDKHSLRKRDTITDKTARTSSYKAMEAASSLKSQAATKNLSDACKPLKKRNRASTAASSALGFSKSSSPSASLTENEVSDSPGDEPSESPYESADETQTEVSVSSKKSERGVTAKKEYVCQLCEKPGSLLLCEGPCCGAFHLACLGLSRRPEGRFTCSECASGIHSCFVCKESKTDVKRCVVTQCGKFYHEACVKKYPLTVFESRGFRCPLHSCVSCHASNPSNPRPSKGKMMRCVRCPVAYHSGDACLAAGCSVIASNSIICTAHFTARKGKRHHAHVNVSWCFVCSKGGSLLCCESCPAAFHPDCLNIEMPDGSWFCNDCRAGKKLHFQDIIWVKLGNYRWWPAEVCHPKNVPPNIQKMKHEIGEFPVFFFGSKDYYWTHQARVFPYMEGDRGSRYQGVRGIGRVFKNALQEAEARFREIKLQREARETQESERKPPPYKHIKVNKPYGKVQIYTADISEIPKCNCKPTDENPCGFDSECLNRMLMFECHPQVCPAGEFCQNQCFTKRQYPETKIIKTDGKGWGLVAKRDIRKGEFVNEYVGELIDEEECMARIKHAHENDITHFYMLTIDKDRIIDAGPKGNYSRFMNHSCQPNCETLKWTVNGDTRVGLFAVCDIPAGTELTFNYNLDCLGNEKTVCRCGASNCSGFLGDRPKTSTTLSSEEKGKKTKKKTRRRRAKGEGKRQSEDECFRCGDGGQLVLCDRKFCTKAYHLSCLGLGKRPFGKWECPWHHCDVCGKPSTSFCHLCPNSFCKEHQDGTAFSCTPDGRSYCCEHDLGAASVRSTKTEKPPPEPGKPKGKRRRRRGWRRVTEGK
UniProt Q3KNT7: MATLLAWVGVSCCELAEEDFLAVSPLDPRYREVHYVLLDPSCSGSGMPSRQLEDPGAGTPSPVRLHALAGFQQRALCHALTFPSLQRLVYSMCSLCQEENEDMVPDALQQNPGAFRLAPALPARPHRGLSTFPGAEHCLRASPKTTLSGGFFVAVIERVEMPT
UniProt Q9BV86: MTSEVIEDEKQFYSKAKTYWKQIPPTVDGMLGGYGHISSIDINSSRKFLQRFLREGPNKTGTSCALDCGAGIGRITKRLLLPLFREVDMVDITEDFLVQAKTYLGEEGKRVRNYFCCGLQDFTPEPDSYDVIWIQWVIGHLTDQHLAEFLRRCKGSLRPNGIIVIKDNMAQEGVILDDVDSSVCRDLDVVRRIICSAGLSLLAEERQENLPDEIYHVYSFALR
UniProt A6NEC2: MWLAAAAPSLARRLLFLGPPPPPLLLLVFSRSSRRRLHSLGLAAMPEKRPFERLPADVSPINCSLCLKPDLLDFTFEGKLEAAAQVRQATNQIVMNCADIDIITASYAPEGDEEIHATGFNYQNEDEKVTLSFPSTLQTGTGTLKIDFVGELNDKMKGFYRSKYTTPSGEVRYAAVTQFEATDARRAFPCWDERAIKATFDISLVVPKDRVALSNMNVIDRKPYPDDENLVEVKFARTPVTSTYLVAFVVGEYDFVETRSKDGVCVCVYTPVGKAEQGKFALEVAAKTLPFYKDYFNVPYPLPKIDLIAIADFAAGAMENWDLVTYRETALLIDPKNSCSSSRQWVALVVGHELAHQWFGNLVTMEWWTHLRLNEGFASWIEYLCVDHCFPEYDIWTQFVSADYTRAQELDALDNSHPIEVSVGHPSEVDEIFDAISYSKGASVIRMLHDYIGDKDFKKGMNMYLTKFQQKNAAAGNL
UniProt O15118: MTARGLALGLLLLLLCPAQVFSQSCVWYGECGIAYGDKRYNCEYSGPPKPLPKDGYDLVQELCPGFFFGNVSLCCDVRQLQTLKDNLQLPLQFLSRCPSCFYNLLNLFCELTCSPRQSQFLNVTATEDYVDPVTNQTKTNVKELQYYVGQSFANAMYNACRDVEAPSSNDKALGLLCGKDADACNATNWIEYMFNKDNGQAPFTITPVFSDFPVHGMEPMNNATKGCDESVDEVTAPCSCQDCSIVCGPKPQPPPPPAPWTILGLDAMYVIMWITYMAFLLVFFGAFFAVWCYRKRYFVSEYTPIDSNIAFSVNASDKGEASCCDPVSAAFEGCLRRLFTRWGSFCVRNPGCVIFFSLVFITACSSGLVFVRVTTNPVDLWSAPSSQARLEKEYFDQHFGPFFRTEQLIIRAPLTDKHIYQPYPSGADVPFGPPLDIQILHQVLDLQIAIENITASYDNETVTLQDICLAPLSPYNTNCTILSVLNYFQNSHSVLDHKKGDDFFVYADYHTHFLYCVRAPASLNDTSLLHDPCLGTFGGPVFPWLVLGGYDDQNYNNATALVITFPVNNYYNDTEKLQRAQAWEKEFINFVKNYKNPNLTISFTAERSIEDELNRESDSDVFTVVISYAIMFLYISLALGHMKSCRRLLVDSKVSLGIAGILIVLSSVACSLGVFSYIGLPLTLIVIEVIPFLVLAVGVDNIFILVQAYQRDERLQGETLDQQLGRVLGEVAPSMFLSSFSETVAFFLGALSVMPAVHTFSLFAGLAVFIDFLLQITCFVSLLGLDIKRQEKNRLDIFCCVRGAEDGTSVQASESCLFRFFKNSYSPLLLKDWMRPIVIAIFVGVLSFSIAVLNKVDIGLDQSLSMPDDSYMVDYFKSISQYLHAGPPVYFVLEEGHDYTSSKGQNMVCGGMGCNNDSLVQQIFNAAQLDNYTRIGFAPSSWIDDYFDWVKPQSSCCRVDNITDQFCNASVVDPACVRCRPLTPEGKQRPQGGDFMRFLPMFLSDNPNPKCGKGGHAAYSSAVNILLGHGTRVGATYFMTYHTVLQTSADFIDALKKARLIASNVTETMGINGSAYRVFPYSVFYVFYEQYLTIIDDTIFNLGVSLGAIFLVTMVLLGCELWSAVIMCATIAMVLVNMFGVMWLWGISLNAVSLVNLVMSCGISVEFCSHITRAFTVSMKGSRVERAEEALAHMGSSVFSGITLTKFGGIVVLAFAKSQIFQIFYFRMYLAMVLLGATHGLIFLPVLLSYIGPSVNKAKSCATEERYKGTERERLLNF
UniProt Q13287: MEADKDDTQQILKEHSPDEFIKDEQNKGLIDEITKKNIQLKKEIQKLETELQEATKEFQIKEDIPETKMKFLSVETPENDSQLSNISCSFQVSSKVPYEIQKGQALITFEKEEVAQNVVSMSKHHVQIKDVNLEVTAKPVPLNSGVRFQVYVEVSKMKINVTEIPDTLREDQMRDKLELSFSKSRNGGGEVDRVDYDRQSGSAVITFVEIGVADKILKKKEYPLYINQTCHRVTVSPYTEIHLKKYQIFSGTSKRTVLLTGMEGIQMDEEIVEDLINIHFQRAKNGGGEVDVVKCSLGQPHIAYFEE
UniProt Q8TAT6: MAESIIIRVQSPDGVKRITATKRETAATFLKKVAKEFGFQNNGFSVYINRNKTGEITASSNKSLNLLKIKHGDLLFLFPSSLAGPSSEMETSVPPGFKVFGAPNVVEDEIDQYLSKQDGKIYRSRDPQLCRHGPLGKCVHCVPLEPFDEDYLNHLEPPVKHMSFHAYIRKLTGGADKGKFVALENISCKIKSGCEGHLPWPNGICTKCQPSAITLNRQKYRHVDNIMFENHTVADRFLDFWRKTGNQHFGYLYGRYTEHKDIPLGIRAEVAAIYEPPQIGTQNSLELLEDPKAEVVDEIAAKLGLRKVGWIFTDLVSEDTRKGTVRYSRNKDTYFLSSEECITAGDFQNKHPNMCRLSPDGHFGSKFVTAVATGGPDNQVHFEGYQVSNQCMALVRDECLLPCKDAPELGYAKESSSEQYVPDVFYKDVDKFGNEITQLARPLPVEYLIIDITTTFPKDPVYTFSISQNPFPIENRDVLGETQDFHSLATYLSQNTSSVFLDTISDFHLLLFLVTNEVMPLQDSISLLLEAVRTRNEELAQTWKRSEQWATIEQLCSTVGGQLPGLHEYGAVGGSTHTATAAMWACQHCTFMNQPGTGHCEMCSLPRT
UniProt Q9H7Z3: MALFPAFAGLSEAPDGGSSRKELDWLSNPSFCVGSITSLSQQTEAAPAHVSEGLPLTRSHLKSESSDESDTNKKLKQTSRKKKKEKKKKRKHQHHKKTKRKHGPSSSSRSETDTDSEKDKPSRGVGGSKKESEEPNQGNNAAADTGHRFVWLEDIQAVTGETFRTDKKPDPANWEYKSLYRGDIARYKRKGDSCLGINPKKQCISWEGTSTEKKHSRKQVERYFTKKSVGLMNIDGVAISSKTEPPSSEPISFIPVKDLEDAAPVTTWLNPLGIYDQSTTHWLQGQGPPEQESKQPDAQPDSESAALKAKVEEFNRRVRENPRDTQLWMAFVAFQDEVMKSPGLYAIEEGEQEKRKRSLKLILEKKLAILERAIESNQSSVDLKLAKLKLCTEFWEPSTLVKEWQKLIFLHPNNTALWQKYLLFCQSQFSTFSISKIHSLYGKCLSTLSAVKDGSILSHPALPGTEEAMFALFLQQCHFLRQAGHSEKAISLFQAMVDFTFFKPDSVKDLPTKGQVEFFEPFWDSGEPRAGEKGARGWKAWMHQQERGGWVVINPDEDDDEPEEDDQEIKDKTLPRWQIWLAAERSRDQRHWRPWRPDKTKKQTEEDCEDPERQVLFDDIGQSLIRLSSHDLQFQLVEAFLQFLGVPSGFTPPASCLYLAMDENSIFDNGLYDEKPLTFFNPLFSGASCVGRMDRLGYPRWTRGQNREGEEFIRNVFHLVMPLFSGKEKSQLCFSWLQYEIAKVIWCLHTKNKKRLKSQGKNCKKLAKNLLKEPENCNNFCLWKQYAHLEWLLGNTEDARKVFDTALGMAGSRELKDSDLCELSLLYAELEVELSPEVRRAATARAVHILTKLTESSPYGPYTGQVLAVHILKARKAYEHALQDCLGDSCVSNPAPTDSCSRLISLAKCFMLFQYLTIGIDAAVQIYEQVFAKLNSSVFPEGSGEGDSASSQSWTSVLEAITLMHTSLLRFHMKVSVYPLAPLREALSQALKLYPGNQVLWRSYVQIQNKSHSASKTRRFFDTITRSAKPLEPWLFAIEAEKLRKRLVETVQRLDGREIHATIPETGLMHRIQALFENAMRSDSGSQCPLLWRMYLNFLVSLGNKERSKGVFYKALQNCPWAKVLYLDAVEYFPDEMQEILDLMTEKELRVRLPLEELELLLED
UniProt P46087: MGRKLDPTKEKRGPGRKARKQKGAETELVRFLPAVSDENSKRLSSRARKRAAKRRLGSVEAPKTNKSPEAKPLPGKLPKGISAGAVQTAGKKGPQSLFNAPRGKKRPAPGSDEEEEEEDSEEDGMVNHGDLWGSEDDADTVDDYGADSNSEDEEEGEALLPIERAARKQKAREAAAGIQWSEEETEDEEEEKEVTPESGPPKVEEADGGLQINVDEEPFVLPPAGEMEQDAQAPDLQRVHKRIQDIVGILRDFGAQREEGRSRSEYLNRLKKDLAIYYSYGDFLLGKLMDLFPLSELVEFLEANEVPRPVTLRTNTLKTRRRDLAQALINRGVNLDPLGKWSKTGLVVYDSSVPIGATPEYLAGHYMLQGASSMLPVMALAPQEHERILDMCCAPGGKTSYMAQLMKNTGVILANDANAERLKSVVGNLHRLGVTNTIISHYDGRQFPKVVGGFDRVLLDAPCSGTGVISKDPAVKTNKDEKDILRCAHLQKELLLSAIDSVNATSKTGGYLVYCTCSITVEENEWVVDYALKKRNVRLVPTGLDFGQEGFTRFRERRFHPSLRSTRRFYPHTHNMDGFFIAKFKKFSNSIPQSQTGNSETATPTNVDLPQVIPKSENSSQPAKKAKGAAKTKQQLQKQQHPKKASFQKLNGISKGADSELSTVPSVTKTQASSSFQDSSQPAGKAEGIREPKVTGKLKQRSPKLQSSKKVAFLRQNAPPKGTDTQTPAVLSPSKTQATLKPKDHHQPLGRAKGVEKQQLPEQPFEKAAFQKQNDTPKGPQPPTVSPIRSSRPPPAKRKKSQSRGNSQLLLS

Compound: Cc1cc(ccc1-c1ccccc1)C(=O)N1CCCN(CC1)C(=O)CCl [compound 10]
Experiment: probe-labelled cysteine peptide fold change vs DMSO (competition) (log2 fold change); higher = less target engagement (more negative = stronger competition)
Conditions: 50 µM; THP-1; incubation time: 4 h
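Also: competitive profiling in live THP-1 cells: cysteine peptides tagged with an iodoacetamide desthiobiotin (IA-DTB) probe, intensity after compound treatment relative to DMSO-treated cells.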

Target | probe-labelled cysteine peptide fold change
NSUN5_Q96P11_278+279_AGVSCCELAEEDFLAVSPSDPR (UniProt Q96P11) | -0.0782
NOP58_Q9Y2X3_439_TYDPSGDSTLPTCSK (UniProt Q9Y2X3) | -0.114
NOL6_Q9H6R4_486_LQAACHR (UniProt Q9H6R4) | 0.135
NT5C2_P49902_121_VDAYGNLLVCAHGFNFIR (UniProt P49902) | 0.116
NOL11_Q9H8H0_286_ECLSVWNIK (UniProt Q9H8H0) | 0.226
NSD1_Q96L73_2508_GCVSDPLQTSGK (UniProt Q96L73) | -0.221
NT5C3A_Q9H0P0_120_LVTDECR (UniProt Q9H0P0) | 0.287
NSF_P46459_11+21_CPTDELSLTNCAVVNEK (UniProt P46459) | -0.0322
NPM3_O75607_105_LSCQPMLSLDDFQLQPPVTFR (UniProt O75607) | 0.593
NMNAT3_Q96T66_134_LLCGADVLK (UniProt Q96T66) | 0.37
NSD2_O96028_594_NLSDACK (UniProt O96028) | 0.0938
NME7_Q9Y5B8_356_IQNAVHCTDLPEDGLLEVQYFFK (UniProt Q9Y5B8) | 0.0316
NLRP3_Q96P20_941_LLCEGLLHPDCK (UniProt Q96P20) | -0.486
NPTN_Q9Y639_259_NEGQDATMYCK (UniProt Q9Y639) | -0.0448
NSUN5P1_Q3KNT7_77_ALCHALTFPSLQR (UniProt Q3KNT7) | 0.0719
NT5DC2_Q9H857_475_FSDLYMASLSCLLNYR (UniProt Q9H857) | 0.259
NOP16_Q9Y3C1_36_IECSHIR (UniProt Q9Y3C1) | -0.594
NSRP1_Q9H0G5_232_CILQTDVK (UniProt Q9H0G5) | 0.172
NSD2_O96028_38_TPSCEVNR (UniProt O96028) | -0.0736

Target | probe-labelled cysteine peptide fold change
NNT_Q13423_1073_KTCDALQAK (UniProt Q13423) | -0.465
NTMT1_Q9BV86_64_TGTSCALDCGAGIGR (UniProt Q9BV86) | 0.195
NPEPPSL1_A6NEC2_339_NSCSSSR (UniProt A6NEC2) | -0.696
NPC1_O15118_177_ALGLLCGK (UniProt O15118) | -0.0591
NMI_Q13287_295_CSLGQPHIAYFEE (UniProt Q13287) | -0.203
NOL10_Q9BSC4_79_CYDTYQLSLK (UniProt Q9BSC4) | 0.368
NPLOC4_Q8TAT6_399_DECLLPCK (UniProt Q8TAT6) | 0.413
NRDE2_Q9H7Z3_900_AYEHALQDCLGDSCVSNPAPTDSCSR (UniProt Q9H7Z3) | 0.333
NOL10_Q9BSC4_55_RIELIQDFEMPTVCTTIK (UniProt Q9BSC4) | 0.127
NOP2_P46087_393_ILDMCCAPGGK (UniProt P46087) | -0.287
NSD3_Q9BZ95_1292_SACASTNEEK (UniProt Q9BZ95) | -0.652
NOL8_Q76FK4_556_QCIRPAEIVASLLEGEENTCGK (UniProt Q76FK4) | -0.418
NOP2_P46087_487_CAHLQK (UniProt P46087) | -0.182
NRDC_O43847_18_VTVAAVCATRRKLCEAGR (UniProt O43847) | -0.213
NRDE2_Q9H7Z3_1119_ALQNCPWAK (UniProt Q9H7Z3) | -0.008
NSUN5P1_Q3KNT7_138_GLSTFPGAEHCLR (UniProt Q3KNT7) | 0.00486
NOTCH2_Q04721_427_GADCTEDVDECAMANSNPCEHAGK (UniProt Q04721) | 0.115
NSUN4_Q96CB9_197_TLALLQTGCCR (UniProt Q96CB9) | -0.41
NSMCE4A_Q9NXX6_226_THTFHFLLGSIYGECPVPKPR (UniProt Q9NXX6) | -0.626

Copied from above for reference:
Target | probe-labelled cysteine peptide fold change
NTMT1_Q9BV86_64_TGTSCALDCGAGIGR (UniProt Q9BV86) | 0.195
NPEPPSL1_A6NEC2_339_NSCSSSR (UniProt A6NEC2) | -0.696
NPC1_O15118_177_ALGLLCGK (UniProt O15118) | -0.0591
NMI_Q13287_295_CSLGQPHIAYFEE (UniProt Q13287) | -0.203
NOL10_Q9BSC4_79_CYDTYQLSLK (UniProt Q9BSC4) | 0.368
NPLOC4_Q8TAT6_399_DECLLPCK (UniProt Q8TAT6) | 0.413
NRDE2_Q9H7Z3_900_AYEHALQDCLGDSCVSNPAPTDSCSR (UniProt Q9H7Z3) | 0.333
NOL10_Q9BSC4_55_RIELIQDFEMPTVCTTIK (UniProt Q9BSC4) | 0.127
NOP2_P46087_393_ILDMCCAPGGK (UniProt P46087) | -0.287
